Source: PubChem BioAssay AID540276 (National Center for Advancing Translational Sciences (NCATS), 2011)
The whole screen tested about 300,000 compounds, of which about 5,400 (1.8%) were called active. Inconclusive means that the source gave no clear call. Such entries were picked first, then a sample of the others. The call rests on the fitted dose curve; tested in HEK293 cells. Potencies beside an inconclusive call are fits to weak or partial responses and may not hold up.

test: qHTS for inhibitors of binding or entry into cells for Marburg Virus; conditions: Marburg virus pseudotyped entry inhibition, cell reporter; activity change, negative = inhibition: at 37.8 µM (top of the series) unless noted
On the % scale 0 is the no-effect control and ±100 the full control effect; potency means the concentration at half of the fitted maximal effect.

Structure (SMILES)	activity change, negative = inhibition	Potency
O=C(CCCOc1ccccc1)Nc1ccccc1C(F)(F)F	inconclusive: 0.232% [activator]	
FC(F)(F)c1cnc(N2CCCN(C(=S)Nc3ccccc3)CC2)c(Cl)c1		inconclusive: 35.5 µM [inhibitor, single point]
O=C(COC(=O)COc1ccc(Br)cc1)NNC(=O)c1ccccc1		inconclusive: 0.501 µM [activator, full curve, poor fit]
COc1ccc(Br)c(-c2nnc(CS(=O)(=O)c3ccccc3)o2)c1		inconclusive: 35.5 µM [inhibitor, single point]
Cc1ccc(C)c(NC(=S)NCCc2c[nH]c3ccccc23)c1		inconclusive: 35.5 µM [inhibitor, partial curve, poor fit]
CC/C(=N\NC(=O)c1ccc2c(c1)OCO2)C12CC3CC(CC(C3)C1)C2	inactive: 5.18%	
O=C(Nc1ccc(F)c(F)c1)c1cnc(-c2ccccc2)nc1-c1ccccc1		inconclusive: 10.3 µM [inhibitor, partial curve, poor fit]
Cc1c(C(=O)NCc2ccc3c(c2)OCO3)oc2ccc(S(=O)(=O)N3CCC(C)CC3)cc12		inconclusive: 6.51 µM [inhibitor, full curve, poor fit]
CCN1C(=O)/C(=C\c2ccncc2)SC1=Nc1ccc(C)c(C)c1		inconclusive: 3.16 µM [inhibitor, partial curve, poor fit]
O=C(CSc1nnc(-c2ccco2)n1CC1CCCO1)NC1CCCC1 (stereo not drawn)		inconclusive: 6.31 µM [activator, partial curve, poor fit]
COc1ccc(Cc2nnc(SCc3ccc([N+](=O)[O-])cc3)o2)cc1		inconclusive: 0.562 µM [inhibitor, single point]
O=S(=O)(c1ccccc1)N1c2cc(Cl)ccc2Oc2nc3ccccc3nc21	inactive: -8.31%	
Clc1ccc(CSc2nnc(/C=C/c3ccccc3)o2)c(Cl)c1		inconclusive: 0.562 µM [activator, full curve]
Cn1c(=O)c2c(n3cnnc13)-c1ccccc1CC21CCCC1		inconclusive: 9.2 µM [inhibitor, partial curve]
COC(=O)c1c(O)ccc(Oc2ccccc2)c1C(=O)OC		inconclusive: 5.01 µM [activator, full curve, poor fit]
COC(=O)CSc1ncnc2c1sc1nc3c(cc12)COC(C)(C)C3	inactive: 7.72% [at 46.1 µM]	
CCOc1ccc(/C=C2\SC(=S)N(CCC(=O)Nc3cccc(C(=O)O)c3)C2=O)cc1		inconclusive: 5.62 µM [activator, full curve, poor fit]
COc1ccc(N2Cc3ccccc3C2=O)cc1		inconclusive: 35.5 µM [inhibitor, single point]
C[C@H](NC(=O)Nc1ccc2c(c1)OCCO2)C(=O)O		inconclusive: 32.6 µM [activator, single point]
CNC(=S)N/N=C/c1ccc(OCc2ccccc2)c(Br)c1		inconclusive: 1.12 µM [activator, partial curve, poor fit]
COc1ccc(/C=N/NC(=O)c2cccc([N+](=O)[O-])c2)cc1OS(=O)(=O)c1ccc(C)cc1		inconclusive: 0.82 µM [inhibitor, full curve, poor fit]
CC(Oc1ccc(Cl)cc1Cl)c1nc(-c2ccccn2)no1 (stereo not drawn)	inactive: 9.73%	

Arranged by number of heavy atoms (rising): some entries from above.
Structure (SMILES)	activity change, negative = inhibition	Potency
COc1ccc(N2Cc3ccccc3C2=O)cc1		inconclusive: 35.5 µM [inhibitor, single point]
C[C@H](NC(=O)Nc1ccc2c(c1)OCCO2)C(=O)O		inconclusive: 32.6 µM [activator, single point]
CC(Oc1ccc(Cl)cc1Cl)c1nc(-c2ccccn2)no1 (stereo not drawn)	inactive: 9.73%	
Clc1ccc(CSc2nnc(/C=C/c3ccccc3)o2)c(Cl)c1		inconclusive: 0.562 µM [activator, full curve]
COc1ccc(Br)c(-c2nnc(CS(=O)(=O)c3ccccc3)o2)c1		inconclusive: 35.5 µM [inhibitor, single point]
O=C(COC(=O)COc1ccc(Br)cc1)NNC(=O)c1ccccc1		inconclusive: 0.501 µM [activator, full curve, poor fit]
O=C(CSc1nnc(-c2ccco2)n1CC1CCCO1)NC1CCCC1 (stereo not drawn)		inconclusive: 6.31 µM [activator, partial curve, poor fit]
FC(F)(F)c1cnc(N2CCCN(C(=S)Nc3ccccc3)CC2)c(Cl)c1		inconclusive: 35.5 µM [inhibitor, single point]
O=S(=O)(c1ccccc1)N1c2cc(Cl)ccc2Oc2nc3ccccc3nc21	inactive: -8.31%	
O=C(Nc1ccc(F)c(F)c1)c1cnc(-c2ccccc2)nc1-c1ccccc1		inconclusive: 10.3 µM [inhibitor, partial curve, poor fit]
CCOc1ccc(/C=C2\SC(=S)N(CCC(=O)Nc3cccc(C(=O)O)c3)C2=O)cc1		inconclusive: 5.62 µM [activator, full curve, poor fit]
COc1ccc(/C=N/NC(=O)c2cccc([N+](=O)[O-])c2)cc1OS(=O)(=O)c1ccc(C)cc1		inconclusive: 0.82 µM [inhibitor, full curve, poor fit]

Following part.

Structure (SMILES)	activity change, negative = inhibition	Potency
O=C(COc1ccc2ccc(=O)oc2c1)Nc1ccc(N2CCOCC2)cc1		inconclusive: 1.41 µM [activator, partial curve]
CC(C)C(c1nnnn1C1CCCC1)N1c2ccccc2CC1C (stereo not drawn)		inconclusive: 32.6 µM [inhibitor, single point]
Cc1cc(N2CCOCC2)nc2ccc(NC(=O)CCC(=O)N3CCN(c4ccc(F)cc4)CC3)cc12	inactive: 2.16% [at 46.1 µM]	
O=c1oc2ccccc2c(Nc2cccc3ccccc23)c1[N+](=O)[O-]		inconclusive: 35.5 µM [inhibitor, single point]
O=C(NCCCc1ccccc1)c1ccc(CS(=O)Cc2ccccc2Cl)o1 (stereo not drawn)	inactive: -14.5% [at 46.1 µM]	
Cc1cc(C)cc(NC(=O)CSc2ccc(-c3cccs3)nn2)c1		active: 7.08 µM
COc1ccc(CN2CCc3ccc(NC(=O)c4ccncc4)cc3C2)c(F)c1	inactive: -16.6%	
O=C(O)CCn1c(SCCc2ccccc2)nc2ccccc21	inactive: -13.6%	
COCCNc1nc(-c2ccccc2)nc2ccccc12		inconclusive: 35.5 µM [inhibitor, single point]
CCSc1nnc(NC(=O)CSc2nnc(CNC(=O)c3cc(OC)c(OC)c(OC)c3)o2)s1		inconclusive: 6.31 µM [activator, single point]
Cc1nnc(SCC(=O)N2N=C(c3ccc(Cl)cc3)CC2c2ccco2)[nH]c1=O (stereo not drawn)	inactive: 1.74% [at 46.1 µM]	
CCCc1nc2ccccc2c(C(=O)OCC(=O)c2ccc3c(c2)NC(=O)CO3)c1CC		inconclusive: 29.1 µM [inhibitor, single point]
COc1ccc(C2C(C(=O)c3ccccc3)=C(C)Nc3nc4ccccc4n32)c(OC)c1 (stereo not drawn)	inactive: 29.5%	
CCOC(=O)c1ccc2ncc(C(=O)OCC)c(Nc3ccc(N4CCOCC4)cc3)c2c1		active: 7.94 µM
CCOc1ccc2nc(NC(=O)C34CC5CC(CC(NC(C)=O)(C5)C3)C4)sc2c1	inactive: -10.5%	
COc1ccc(Oc2cc(C)c3cccc(C)c3n2)cc1	inactive: 17.7%	
COc1ccccc1CC(=O)Nc1ccc([N+](=O)[O-])cc1OC		inconclusive: 7.08 µM [inhibitor, partial curve, poor fit]
Cc1ccc(CNC(=O)CO/N=C/c2ccc(C(C)(C)C)cc2)cc1		inconclusive: 1.41 µM [activator, full curve, poor fit]
O=C(NCCN1CCN(C(=O)c2cccs2)CC1)C(=O)Nc1ccc(Br)cc1		inconclusive: 15.8 µM [inhibitor, single point]
O=C(c1ccco1)N1CCN(C(c2ccccc2Cl)c2nnnn2CC2CCCO2)CC1 (stereo not drawn)		inconclusive: 0.708 µM [activator, partial curve, poor fit]
O=C(Cc1ccccc1)N/N=C/c1cc(Br)cc(Br)c1O		inconclusive: 35.5 µM [inhibitor, single point]
